Data reported in the supplement of paper PMC10849652.
The list shows a part of the results.

Amino acid sequences for entries named in this document (tags omitted). A change or cut given only in a name is not applied to a line headed by its entry.
UniProt Q9NQQ7: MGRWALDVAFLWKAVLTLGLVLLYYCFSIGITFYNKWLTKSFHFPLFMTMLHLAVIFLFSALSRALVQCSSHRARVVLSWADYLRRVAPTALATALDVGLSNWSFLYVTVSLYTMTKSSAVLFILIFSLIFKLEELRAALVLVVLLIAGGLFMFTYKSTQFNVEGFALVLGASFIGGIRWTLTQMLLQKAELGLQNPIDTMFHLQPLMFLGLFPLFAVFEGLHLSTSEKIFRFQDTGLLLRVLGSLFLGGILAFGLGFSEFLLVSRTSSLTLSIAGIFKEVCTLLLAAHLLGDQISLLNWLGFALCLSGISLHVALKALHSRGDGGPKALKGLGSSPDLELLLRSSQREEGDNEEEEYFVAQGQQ
UniProt P08195: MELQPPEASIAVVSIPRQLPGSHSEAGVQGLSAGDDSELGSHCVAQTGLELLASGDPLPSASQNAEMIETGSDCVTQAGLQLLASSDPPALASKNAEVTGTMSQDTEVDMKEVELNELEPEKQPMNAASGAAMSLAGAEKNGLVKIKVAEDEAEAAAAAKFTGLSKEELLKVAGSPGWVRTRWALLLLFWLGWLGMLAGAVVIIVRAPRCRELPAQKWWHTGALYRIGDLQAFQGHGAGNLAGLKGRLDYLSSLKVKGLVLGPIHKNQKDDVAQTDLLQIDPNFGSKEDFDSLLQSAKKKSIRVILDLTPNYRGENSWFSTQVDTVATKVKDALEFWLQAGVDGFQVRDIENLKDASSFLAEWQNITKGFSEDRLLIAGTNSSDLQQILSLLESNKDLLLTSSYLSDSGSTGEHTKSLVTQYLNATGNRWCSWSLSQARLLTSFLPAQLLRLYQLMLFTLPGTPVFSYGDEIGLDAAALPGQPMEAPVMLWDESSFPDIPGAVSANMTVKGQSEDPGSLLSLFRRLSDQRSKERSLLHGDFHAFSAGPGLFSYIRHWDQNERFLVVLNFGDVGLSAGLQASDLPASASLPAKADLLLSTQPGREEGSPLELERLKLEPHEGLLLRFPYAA
UniProt Q6PML9: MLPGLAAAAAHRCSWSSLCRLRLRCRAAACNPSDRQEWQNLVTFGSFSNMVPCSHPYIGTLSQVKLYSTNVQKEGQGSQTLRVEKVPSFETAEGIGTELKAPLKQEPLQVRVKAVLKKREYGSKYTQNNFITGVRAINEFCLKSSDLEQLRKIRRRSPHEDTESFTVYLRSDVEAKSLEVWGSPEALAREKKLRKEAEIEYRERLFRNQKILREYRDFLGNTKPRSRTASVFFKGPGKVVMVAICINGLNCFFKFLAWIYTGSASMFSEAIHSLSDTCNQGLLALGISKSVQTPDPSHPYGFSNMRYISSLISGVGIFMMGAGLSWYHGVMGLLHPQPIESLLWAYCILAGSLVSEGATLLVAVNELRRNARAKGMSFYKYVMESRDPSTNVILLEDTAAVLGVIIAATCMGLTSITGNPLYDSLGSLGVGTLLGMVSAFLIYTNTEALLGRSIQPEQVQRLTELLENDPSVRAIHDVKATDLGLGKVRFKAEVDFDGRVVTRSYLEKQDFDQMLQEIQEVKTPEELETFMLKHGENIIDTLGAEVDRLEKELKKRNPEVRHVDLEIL
UniProt Q9BXS9: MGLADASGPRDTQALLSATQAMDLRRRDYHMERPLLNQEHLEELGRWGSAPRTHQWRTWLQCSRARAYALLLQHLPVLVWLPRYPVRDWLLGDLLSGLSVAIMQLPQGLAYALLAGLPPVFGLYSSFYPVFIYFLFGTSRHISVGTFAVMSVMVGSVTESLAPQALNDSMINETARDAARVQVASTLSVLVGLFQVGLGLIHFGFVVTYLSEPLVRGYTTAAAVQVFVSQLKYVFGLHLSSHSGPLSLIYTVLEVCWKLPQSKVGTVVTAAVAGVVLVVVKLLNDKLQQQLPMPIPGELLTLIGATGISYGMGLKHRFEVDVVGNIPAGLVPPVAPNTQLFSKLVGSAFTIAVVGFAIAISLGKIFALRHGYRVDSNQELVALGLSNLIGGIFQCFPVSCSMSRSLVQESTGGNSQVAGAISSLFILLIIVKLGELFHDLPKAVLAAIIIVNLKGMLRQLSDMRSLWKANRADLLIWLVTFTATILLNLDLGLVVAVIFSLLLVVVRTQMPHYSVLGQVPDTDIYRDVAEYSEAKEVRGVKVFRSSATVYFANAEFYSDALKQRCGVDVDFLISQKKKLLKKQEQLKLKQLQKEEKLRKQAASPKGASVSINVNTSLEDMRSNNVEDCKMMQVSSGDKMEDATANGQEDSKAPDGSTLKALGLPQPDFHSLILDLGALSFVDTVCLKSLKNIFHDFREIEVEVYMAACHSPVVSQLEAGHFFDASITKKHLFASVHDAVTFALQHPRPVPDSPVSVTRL
UniProt Q9Y6M7: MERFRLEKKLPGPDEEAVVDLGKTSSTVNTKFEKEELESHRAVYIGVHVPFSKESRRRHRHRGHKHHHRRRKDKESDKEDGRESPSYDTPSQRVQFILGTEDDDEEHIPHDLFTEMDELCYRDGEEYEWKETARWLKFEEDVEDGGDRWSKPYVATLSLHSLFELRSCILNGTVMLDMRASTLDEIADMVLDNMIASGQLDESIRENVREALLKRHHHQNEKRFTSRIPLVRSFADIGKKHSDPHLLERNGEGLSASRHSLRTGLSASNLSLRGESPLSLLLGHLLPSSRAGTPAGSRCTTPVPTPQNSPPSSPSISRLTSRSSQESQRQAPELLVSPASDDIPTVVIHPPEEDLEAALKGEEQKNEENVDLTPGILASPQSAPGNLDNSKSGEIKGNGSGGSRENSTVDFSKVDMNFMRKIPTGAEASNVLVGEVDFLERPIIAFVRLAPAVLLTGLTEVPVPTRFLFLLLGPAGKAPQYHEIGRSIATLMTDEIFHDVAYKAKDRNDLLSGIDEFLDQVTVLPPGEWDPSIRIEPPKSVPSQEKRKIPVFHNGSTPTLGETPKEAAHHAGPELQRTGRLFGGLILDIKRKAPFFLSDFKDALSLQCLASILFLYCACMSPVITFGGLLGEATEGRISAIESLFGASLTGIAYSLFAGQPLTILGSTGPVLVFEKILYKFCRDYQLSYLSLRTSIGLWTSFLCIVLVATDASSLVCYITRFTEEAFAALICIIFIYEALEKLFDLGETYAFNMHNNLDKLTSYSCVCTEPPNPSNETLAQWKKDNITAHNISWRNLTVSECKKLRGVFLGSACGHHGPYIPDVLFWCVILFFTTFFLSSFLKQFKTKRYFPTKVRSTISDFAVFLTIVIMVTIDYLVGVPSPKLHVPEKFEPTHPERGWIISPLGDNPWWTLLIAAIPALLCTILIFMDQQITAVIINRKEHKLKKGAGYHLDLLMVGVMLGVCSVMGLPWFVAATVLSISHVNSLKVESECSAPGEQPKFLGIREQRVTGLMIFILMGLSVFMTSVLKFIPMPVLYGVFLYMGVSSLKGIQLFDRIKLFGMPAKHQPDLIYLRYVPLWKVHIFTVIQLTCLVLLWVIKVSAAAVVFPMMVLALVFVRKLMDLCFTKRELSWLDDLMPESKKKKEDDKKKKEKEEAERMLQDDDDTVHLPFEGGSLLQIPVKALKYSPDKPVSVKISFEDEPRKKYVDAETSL
UniProt Q9H2H9: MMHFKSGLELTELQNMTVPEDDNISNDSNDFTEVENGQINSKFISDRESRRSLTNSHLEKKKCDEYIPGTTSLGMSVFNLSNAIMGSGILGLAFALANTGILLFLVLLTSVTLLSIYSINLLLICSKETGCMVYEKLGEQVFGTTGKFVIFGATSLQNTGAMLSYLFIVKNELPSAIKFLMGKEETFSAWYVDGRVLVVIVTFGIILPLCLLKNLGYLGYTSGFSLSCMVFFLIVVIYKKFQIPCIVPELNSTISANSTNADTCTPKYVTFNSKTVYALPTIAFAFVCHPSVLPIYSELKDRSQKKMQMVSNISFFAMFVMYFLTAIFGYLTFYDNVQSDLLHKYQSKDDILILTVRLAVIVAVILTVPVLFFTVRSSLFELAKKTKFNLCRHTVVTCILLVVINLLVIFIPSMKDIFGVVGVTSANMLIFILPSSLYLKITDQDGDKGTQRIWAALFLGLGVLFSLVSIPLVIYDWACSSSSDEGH
UniProt Q9H0C2: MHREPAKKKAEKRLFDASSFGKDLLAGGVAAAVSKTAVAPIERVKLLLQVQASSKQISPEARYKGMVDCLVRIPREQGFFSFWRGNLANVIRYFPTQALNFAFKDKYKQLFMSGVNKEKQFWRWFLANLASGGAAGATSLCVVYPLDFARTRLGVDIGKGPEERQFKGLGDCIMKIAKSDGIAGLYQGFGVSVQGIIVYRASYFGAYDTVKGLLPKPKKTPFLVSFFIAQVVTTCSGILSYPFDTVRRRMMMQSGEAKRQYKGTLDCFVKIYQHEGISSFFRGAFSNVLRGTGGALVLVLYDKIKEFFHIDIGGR
UniProt P48029: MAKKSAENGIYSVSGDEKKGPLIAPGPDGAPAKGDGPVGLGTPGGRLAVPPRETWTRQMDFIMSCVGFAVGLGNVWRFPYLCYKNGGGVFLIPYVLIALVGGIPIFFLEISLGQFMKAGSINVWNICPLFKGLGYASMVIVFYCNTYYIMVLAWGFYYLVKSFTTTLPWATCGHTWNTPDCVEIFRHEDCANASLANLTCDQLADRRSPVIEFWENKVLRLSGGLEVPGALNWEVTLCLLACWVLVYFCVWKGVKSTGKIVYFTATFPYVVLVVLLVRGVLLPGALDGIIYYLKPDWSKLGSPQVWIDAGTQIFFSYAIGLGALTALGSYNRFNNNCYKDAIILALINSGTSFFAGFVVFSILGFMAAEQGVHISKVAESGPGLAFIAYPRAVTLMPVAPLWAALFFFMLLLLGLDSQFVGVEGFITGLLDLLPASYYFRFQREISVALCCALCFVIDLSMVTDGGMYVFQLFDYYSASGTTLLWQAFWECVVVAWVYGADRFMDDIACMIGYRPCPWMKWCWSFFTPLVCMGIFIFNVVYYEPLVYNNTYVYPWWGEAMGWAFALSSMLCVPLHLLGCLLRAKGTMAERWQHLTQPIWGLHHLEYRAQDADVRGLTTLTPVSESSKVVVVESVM
UniProt P11169: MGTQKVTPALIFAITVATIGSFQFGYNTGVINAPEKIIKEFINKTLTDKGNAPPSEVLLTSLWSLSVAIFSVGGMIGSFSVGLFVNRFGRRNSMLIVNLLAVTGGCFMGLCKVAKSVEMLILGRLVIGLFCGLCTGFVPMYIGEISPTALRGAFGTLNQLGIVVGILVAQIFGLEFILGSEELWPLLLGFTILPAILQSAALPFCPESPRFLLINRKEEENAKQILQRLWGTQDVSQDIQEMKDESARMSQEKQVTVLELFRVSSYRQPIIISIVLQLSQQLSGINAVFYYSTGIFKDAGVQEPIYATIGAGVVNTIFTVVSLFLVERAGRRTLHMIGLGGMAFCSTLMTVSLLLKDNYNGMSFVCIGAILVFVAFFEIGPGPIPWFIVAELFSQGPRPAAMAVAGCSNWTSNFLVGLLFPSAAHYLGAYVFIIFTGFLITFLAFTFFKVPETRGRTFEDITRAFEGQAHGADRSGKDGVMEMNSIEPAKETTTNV
UniProt Q8NBW4: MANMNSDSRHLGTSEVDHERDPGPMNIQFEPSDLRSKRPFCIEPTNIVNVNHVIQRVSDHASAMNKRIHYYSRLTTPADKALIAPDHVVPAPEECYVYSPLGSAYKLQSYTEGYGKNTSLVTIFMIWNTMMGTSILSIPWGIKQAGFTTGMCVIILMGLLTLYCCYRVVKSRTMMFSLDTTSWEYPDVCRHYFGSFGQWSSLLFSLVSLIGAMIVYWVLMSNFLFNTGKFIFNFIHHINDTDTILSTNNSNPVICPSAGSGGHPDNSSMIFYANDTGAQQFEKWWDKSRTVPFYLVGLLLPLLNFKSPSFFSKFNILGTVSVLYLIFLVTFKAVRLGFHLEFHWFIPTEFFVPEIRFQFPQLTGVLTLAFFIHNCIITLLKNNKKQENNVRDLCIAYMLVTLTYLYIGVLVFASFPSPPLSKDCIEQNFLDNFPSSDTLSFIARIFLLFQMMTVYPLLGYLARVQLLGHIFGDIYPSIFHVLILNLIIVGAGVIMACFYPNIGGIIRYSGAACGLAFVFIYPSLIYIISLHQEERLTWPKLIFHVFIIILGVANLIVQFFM
UniProt Q96QD8: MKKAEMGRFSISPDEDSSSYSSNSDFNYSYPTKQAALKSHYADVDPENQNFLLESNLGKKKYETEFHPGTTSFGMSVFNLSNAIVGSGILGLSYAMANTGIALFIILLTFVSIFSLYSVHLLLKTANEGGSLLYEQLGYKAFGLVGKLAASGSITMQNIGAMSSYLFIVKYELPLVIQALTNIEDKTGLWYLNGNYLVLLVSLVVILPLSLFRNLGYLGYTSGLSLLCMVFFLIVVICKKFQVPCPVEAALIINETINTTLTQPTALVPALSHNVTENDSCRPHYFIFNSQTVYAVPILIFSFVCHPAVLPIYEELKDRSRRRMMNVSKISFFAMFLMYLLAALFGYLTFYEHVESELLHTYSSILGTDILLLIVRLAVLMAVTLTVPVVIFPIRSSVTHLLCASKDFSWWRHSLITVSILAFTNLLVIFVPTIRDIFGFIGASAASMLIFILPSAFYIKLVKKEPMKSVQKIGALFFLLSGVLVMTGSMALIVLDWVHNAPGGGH

Legend:
Assay in all cases: log2 fold change, soluble protein after heating vs DMSO (PISA); higher = thermal stabilisation; K562 lysate, 10 uM; active = over 0.2 and 3.5 SD of the protein, either way, in both replicates (recomputed)
lapatinib = compound: CS(=O)(=O)CCNCc1ccc(-c2ccc3ncnc(Nc4ccc(OCc5cccc(F)c5)c(Cl)c4)c3c2)o1 [lapatinib]
Outline: (§1)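 Pellets of K562 cells were dounce-homogenised in PBS pH 7.4 with 1 mM MgCl2, and the crude extract was held at 1 mg/mL protein for a 30 min treatment with 10 μM compound. Aliquots were heated for 3 min over 48°C-58°C and pooled before NP-40 was added to 0.5% at 4°C. The supernatant from 21,000xg for 90 min was quantified by TMTpro 16plex LC-MS/MS with channel sums equalised. Values are reported from duplicates as log-two fold change in thermal stability relative to solvent controls.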

pictilisib = compound: CS(=O)(=O)N1CCN(Cc2cc3nc(-c4cccc5[nH]ncc45)nc(N4CCOCC4)c3s2)CC1 [pictilisib]
Outline: as §1

crizotinib = compound: C[C@@H](Oc1cc(-c2cnn(C3CCNCC3)c2)cnc1N)c1c(Cl)ccc(F)c1Cl [crizotinib]
Outline: as §1

[1] = compound: C[C@H](C1=CC=C(C=C1)C(=O)NC2=C3C=CNC3=NC=C2)N
Outline: as §1

duvelisib = compound: C[C@H](Nc1ncnc2nc[nH]c12)c1cc2cccc(Cl)c2c(=O)n1-c1ccccc1 [duvelisib]
Outline: as §1

gandotinib = compound: Cc1cc(Nc2cc(CN3CCOCC3)c3nc(C)c(Cc4ccc(Cl)cc4F)n3n2)n[nH]1 [gandotinib]
Outline: as §1

tozasertib = compound: Cc1cc(Nc2cc(N3CCN(C)CC3)nc(Sc3ccc(NC(=O)C4CC4)cc3)n2)n[nH]1 [tozasertib]
Outline: as §1

doramapimod = compound: Cc1ccc(-n2nc(C(C)(C)C)cc2NC(=O)Nc2ccc(OCCN3CCOCC3)c3ccccc23)cc1 [doramapimod]
Outline: as §1

bafetinib = compound: Cc1ccc(NC(=O)c2ccc(CN3CC[C@H](N(C)C)C3)c(C(F)(F)F)c2)cc1Nc1nccc(-c2cncnc2)n1 [bafetinib]
Outline: as §1

[2] = compound: Cc1cccc(CC(=O)N2CCc3c2ccc(-c2cn(C)c4ncnc(N)c24)c3F)n1
Outline: as §1

Measured: log2 fold change

SLC7A2 isoform 3 (UniProt P52569)
inactive: lapatinib -0.107 | pictilisib 0.035 | crizotinib -0.035 | [1] 0.043 | duvelisib 0.052 | gandotinib -0.024 | tozasertib -0.131 | doramapimod 0.038 | bafetinib -0.11 | [2] 0.077

SLC35C2 isoform 3 (UniProt Q9NQQ7)
inactive: lapatinib -0.095 | pictilisib -0.001 | crizotinib 0.035 | [1] -0.163 | duvelisib -0.056 | gandotinib -0.095 | tozasertib 0.141 | doramapimod -0.09 | bafetinib -0.016 | [2] -0.134

SLC3A2 isoform 3 (UniProt P08195)
inactive: lapatinib -0.017 | pictilisib -0.005 | crizotinib 0.006 | [1] -0.039 | duvelisib -0.001 | gandotinib 0.057 | tozasertib -0.028 | doramapimod -0.011 | bafetinib 0.011 | [2] 0.011

SLC30A9 (UniProt Q6PML9)
active: [2] 0.312
inactive: lapatinib -0.007 | pictilisib -0.054 | crizotinib -0.043 | [1] -0.423 | duvelisib 0.048 | gandotinib 0.008 | tozasertib -0.003 | doramapimod 0.036 | bafetinib -0.161

SLC37A4 isoform 2 (UniProt O43826)
inactive: lapatinib 0 | pictilisib -0.05 | crizotinib -0.014 | [1] -0.18 | duvelisib 0.023 | gandotinib 0.158 | tozasertib 0.045 | doramapimod 0.06 | bafetinib -0.023 | [2] 0.186

SLC26A6 (UniProt Q9BXS9)
inactive: lapatinib -0.009 | pictilisib 0.05 | crizotinib -0.023 | [1] 0.016 | duvelisib 0.067 | gandotinib 0.051 | tozasertib 0.047 | doramapimod -0.003 | bafetinib -0.003 | [2] 0.118

SLC38A5 (UniProt Q8WUX1)
inactive: lapatinib -0.027 | pictilisib -0.027 | crizotinib -0.062 | [1] -0.158 | duvelisib 0.036 | gandotinib 0.034 | tozasertib -0.008 | doramapimod 0.005 | bafetinib -0.06 | [2] 0.049

SLC27A4 (UniProt Q6P1M0)
inactive: lapatinib -0.052 | pictilisib -0.005 | crizotinib -0.049 | [1] -0.04 | duvelisib 0.037 | gandotinib 0.095 | tozasertib -0.045 | doramapimod 0.149 | bafetinib -0.057 | [2] 0.052

SLMAP isoform 3 (UniProt Q14BN4)
inactive: lapatinib -0.009 | pictilisib 0.009 | crizotinib -0.008 | [1] -0.088 | duvelisib 0.032 | gandotinib -0.043 | tozasertib 0.073 | doramapimod 0.027 | bafetinib -0.073 | [2] 0.095

SLC25A11 (UniProt Q02978)
inactive: lapatinib -0.017 | pictilisib 0.005 | crizotinib -0.039 | [1] -0.122 | duvelisib 0.027 | gandotinib 0.033 | tozasertib -0.006 | doramapimod -0.053 | bafetinib -0.052 | [2] 0.076

SLC4A7 isoform 7 (UniProt Q9Y6M7)
inactive: lapatinib 0.007 | pictilisib -0.016 | crizotinib -0.019 | [1] 0.081 | duvelisib 0.047 | gandotinib -0.112 | tozasertib 0.009 | doramapimod -0.041 | bafetinib -0.042 | [2] -0.078

SLC38A1 (UniProt Q9H2H9)
inactive: lapatinib -0.008 | pictilisib -0.01 | crizotinib -0.064 | [1] -0.218 | duvelisib 0.048 | gandotinib 0.096 | tozasertib 0.026 | doramapimod -0.009 | bafetinib 0.003 | [2] 0.095

SLK isoform 2 (UniProt Q9H2G2)
inactive: lapatinib -0.08 | pictilisib 0.015 | crizotinib 0.157 | [1] 0.003 | duvelisib -0.01 | gandotinib 0.138 | tozasertib -0.03 | doramapimod -0.111 | bafetinib -0.036 | [2] -0.102

SLC7A11 (UniProt Q9UPY5)
inactive: lapatinib 0.003 | pictilisib -0.042 | crizotinib -0.012 | [1] -0.082 | duvelisib -0.031 | gandotinib 0.06 | tozasertib 0.024 | doramapimod -0.01 | bafetinib -0.035 | [2] 0

SLC25A31 (UniProt Q9H0C2)
inactive: lapatinib 0.024 | pictilisib -0.012 | crizotinib -0.012 | [1] -0.034 | duvelisib -0.009 | gandotinib 0.022 | tozasertib -0.019 | doramapimod -0.006 | bafetinib -0.067 | [2] 0.036

Quoted from the results shown (2 entries):
SLK isoform 2 (UniProt Q9H2G2)
inactive: lapatinib -0.08 | pictilisib 0.015 | crizotinib 0.157 | [1] 0.003 | duvelisib -0.01 | gandotinib 0.138 | tozasertib -0.03 | doramapimod -0.111 | bafetinib -0.036 | [2] -0.102

SLC7A11 (UniProt Q9UPY5)
inactive: lapatinib 0.003 | pictilisib -0.042 | crizotinib -0.012 | [1] -0.082 | duvelisib -0.031 | gandotinib 0.06 | tozasertib 0.024 | doramapimod -0.01 | bafetinib -0.035 | [2] 0

The list continues:

SLC6A8 isoform 2 (UniProt P48029)
inactive: lapatinib -0.052 | pictilisib 0.006 | crizotinib -0.055 | [1] 0.008 | duvelisib -0.163 | gandotinib -0.045 | tozasertib -0.203 | doramapimod 0.134 | bafetinib -0.058 | [2] -0.083

SLC43A3 isoform 2 (UniProt Q8NBI5)
inactive: lapatinib -0.043 | pictilisib -0.016 | crizotinib -0.013 | [1] -0.013 | duvelisib -0.004 | gandotinib 0.069 | tozasertib -0.003 | doramapimod 0.001 | bafetinib 0.037 | [2] -0.05

SMAP1 isoform 2 (UniProt Q8IYB5)
inactive: lapatinib -0.053 | pictilisib -0.011 | crizotinib 0.033 | [1] 0.04 | duvelisib -0.021 | gandotinib 0.014 | tozasertib 0.03 | doramapimod 0.066 | bafetinib 0.032 | [2] -0.067

SLC25A32 (UniProt Q9H2D1)
inactive: lapatinib -0.032 | pictilisib -0.005 | crizotinib -0.017 | [1] -0.151 | duvelisib -0.014 | gandotinib 0.098 | tozasertib -0.038 | doramapimod -0.019 | bafetinib -0.022 | [2] 0.1

SLC2A3 (UniProt P11169)
inactive: lapatinib -0.014 | pictilisib -0.044 | crizotinib 0.042 | [1] -0.022 | duvelisib 0.037 | gandotinib 0.009 | tozasertib -0.018 | doramapimod 0.059 | bafetinib -0.018 | [2] 0.034

SLC38A9 (UniProt Q8NBW4)
inactive: lapatinib 0.073 | pictilisib 0.069 | crizotinib 0.011 | [1] -0.12 | duvelisib -0.043 | gandotinib 0.114 | tozasertib 0.036 | doramapimod -0.04 | bafetinib -0.013 | [2] -0.012

SLC7A6 (UniProt Q92536)
inactive: lapatinib 0.017 | pictilisib -0.002 | crizotinib 0.054 | [1] -0.137 | duvelisib -0.011 | gandotinib 0.116 | tozasertib -0.114 | doramapimod 0.1 | bafetinib -0.019 | [2] 0.058

SLC25A3 isoform 2 (UniProt Q00325)
inactive: lapatinib -0.022 | pictilisib -0.019 | crizotinib -0.018 | [1] -0.112 | duvelisib 0.02 | gandotinib 0.032 | tozasertib -0.019 | doramapimod -0.005 | bafetinib -0.013 | [2] 0.031

SLC25A12 (UniProt O75746)
inactive: lapatinib 0 | pictilisib 0.015 | crizotinib 0.042 | [1] -0.027 | duvelisib -0.005 | gandotinib 0.005 | tozasertib -0.028 | doramapimod -0.068 | bafetinib -0.038 | [2] 0.021

SLC25A24 (UniProt Q6NUK1)
inactive: lapatinib -0.032 | pictilisib -0.049 | crizotinib 0.039 | [1] 0.006 | duvelisib -0.025 | gandotinib -0.01 | tozasertib 0.018 | doramapimod -0.018 | bafetinib 0.04 | [2] -0.011

SLC38A2 (UniProt Q96QD8)
inactive: lapatinib -0.053 | pictilisib 0 | crizotinib 0.036 | [1] -0.106 | duvelisib 0.035 | gandotinib 0.123 | tozasertib 0.035 | doramapimod 0.025 | bafetinib -0.002 | [2] 0.109

SLC25A25 isoform 3 (UniProt Q6KCM7)
inactive: lapatinib -0.004 | pictilisib 0.021 | crizotinib -0.039 | [1] 0.013 | duvelisib -0.014 | gandotinib -0.047 | tozasertib 0 | doramapimod 0.015 | bafetinib 0.013 | [2] 0.043
